These are yes or no findings as the source states them, for the method shown. In cells and extracts the contact can be indirect. Some entries that bind do so weakly or less than the wild type.
T1: ASCL1 (human (endogenous in iPSC-derived neural cultures and fetal cortex)) (UniProt P50553)
T1 sequence: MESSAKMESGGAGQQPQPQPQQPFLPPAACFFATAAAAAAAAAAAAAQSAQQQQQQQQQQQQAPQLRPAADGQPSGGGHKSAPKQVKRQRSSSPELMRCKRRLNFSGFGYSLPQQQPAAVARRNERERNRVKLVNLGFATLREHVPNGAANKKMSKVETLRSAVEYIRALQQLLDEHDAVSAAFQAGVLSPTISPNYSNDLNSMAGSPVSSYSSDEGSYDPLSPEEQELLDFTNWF

Sequences of proteins named here, by UniProt entry; tags and fusion partners are left off.
UniProt Q92922: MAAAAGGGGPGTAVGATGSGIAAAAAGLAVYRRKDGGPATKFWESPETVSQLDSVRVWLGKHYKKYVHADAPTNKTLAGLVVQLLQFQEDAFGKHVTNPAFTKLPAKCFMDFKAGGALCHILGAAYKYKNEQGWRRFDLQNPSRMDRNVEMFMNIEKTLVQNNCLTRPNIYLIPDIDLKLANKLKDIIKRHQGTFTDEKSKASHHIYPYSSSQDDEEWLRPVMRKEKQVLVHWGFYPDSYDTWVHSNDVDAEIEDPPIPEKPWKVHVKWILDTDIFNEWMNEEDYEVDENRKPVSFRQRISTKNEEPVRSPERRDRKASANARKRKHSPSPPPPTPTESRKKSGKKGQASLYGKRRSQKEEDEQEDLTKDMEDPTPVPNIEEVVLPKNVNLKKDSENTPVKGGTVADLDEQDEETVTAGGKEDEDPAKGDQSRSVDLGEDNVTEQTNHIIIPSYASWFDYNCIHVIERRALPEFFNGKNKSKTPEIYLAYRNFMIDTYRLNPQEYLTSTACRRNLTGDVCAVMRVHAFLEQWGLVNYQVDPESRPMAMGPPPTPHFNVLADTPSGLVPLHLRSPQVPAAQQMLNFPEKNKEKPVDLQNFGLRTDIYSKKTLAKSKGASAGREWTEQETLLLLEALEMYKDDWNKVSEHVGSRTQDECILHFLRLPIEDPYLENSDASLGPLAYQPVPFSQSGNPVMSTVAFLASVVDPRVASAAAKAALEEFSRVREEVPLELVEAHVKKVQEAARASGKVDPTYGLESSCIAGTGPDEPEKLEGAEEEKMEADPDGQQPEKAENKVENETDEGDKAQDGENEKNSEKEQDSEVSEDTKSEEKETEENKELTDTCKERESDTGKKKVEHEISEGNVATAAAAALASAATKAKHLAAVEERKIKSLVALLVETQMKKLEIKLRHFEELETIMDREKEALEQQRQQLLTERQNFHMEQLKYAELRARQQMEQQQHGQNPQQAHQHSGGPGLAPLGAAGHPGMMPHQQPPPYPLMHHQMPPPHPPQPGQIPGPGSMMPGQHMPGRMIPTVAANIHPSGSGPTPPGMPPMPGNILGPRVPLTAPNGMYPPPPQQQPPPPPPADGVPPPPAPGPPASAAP
UniProt O14497: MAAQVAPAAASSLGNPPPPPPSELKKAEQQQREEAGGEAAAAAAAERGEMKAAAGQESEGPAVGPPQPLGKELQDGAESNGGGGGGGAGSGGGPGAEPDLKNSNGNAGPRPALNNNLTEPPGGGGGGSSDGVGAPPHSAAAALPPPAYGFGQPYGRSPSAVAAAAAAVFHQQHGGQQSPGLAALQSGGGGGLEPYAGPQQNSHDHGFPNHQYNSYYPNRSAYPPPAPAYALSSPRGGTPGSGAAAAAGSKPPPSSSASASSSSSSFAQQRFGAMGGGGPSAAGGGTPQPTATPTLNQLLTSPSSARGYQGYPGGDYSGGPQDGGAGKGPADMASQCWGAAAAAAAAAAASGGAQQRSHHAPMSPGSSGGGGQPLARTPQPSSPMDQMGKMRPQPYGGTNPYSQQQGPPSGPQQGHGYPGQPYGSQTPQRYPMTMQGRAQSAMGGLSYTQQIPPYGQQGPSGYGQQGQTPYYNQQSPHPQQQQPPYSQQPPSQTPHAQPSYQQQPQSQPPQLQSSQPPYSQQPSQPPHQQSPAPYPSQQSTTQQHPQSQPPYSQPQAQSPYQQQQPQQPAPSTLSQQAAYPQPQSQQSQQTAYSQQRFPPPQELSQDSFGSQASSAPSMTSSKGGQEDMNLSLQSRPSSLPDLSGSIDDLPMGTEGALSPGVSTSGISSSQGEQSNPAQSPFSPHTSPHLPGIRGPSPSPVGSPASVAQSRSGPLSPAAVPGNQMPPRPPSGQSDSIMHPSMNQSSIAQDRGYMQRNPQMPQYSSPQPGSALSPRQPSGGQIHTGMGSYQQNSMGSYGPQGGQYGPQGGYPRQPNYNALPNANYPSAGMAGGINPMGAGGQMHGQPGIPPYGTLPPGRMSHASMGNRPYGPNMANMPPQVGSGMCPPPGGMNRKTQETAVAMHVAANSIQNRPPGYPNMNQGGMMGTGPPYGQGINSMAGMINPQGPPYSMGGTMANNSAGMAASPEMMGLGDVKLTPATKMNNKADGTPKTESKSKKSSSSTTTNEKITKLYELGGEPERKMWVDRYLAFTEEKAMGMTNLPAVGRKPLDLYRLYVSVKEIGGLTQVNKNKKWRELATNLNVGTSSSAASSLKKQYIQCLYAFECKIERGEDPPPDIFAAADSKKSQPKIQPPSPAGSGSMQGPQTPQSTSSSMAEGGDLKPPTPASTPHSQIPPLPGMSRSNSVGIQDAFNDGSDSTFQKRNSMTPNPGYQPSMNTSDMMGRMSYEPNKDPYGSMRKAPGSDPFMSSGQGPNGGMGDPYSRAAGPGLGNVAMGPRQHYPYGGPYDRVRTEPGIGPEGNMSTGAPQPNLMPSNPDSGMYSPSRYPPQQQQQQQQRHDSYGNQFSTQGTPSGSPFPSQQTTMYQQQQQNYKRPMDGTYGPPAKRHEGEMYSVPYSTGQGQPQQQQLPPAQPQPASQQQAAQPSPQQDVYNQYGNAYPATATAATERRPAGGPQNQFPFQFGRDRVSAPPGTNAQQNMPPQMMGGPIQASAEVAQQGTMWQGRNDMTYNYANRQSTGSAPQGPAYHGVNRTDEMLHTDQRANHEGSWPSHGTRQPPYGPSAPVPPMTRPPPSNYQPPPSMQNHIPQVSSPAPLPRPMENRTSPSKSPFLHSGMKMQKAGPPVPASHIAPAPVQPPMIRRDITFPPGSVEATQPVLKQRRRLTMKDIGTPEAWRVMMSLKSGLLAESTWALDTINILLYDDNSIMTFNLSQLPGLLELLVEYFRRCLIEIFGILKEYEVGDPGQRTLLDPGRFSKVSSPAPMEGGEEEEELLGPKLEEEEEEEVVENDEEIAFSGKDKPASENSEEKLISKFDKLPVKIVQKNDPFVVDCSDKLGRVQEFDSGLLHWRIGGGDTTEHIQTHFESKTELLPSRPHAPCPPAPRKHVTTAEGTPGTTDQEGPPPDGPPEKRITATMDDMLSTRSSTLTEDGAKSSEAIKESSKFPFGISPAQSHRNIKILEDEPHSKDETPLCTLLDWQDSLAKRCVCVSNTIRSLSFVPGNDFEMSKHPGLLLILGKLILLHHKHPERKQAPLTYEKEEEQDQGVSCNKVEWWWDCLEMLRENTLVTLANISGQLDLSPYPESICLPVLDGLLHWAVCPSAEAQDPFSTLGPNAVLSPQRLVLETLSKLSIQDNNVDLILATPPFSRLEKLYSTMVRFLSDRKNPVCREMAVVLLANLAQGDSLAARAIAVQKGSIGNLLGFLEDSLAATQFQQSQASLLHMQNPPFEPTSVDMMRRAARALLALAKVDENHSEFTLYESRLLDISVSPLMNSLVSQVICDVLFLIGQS
UniProt Q12824: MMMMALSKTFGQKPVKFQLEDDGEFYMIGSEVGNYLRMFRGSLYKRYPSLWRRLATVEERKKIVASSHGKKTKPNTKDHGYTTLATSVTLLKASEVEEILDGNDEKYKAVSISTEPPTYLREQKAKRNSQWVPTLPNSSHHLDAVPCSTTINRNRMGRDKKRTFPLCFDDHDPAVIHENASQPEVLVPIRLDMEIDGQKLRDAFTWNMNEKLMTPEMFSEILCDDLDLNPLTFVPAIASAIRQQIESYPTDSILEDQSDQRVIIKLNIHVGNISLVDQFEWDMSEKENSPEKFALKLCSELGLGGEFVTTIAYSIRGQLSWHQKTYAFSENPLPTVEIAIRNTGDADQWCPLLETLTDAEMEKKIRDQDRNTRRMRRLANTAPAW
UniProt Q8TAQ2: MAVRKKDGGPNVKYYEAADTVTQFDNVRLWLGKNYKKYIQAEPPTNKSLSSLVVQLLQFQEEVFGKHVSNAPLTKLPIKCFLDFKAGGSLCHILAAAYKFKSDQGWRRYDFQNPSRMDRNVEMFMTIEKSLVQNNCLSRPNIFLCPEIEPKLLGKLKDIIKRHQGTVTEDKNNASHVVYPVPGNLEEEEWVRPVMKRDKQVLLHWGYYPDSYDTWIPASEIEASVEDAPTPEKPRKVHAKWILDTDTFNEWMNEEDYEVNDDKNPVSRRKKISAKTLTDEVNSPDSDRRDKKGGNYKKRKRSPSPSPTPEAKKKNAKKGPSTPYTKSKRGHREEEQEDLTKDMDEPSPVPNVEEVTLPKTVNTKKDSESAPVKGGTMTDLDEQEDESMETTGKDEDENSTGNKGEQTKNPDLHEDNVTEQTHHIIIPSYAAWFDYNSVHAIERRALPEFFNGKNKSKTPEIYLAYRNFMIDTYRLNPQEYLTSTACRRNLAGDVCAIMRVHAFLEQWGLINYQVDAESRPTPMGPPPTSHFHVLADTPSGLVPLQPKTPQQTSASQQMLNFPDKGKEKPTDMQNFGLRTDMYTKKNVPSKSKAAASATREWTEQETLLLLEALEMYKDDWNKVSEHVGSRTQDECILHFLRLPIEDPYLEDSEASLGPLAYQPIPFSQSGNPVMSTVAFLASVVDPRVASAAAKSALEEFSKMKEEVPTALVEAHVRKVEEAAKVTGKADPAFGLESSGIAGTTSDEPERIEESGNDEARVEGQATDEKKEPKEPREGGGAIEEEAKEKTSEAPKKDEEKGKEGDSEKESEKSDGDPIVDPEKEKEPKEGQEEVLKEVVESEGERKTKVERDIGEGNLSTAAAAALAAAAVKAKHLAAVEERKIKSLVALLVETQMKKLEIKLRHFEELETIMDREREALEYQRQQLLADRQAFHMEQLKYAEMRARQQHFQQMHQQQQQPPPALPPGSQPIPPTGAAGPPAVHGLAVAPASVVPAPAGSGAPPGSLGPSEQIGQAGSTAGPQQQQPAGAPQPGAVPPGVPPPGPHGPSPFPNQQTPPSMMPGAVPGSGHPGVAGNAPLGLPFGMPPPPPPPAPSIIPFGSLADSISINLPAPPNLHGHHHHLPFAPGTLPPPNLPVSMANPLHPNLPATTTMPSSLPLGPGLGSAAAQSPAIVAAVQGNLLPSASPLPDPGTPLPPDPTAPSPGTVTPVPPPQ


Tests used:
[1] = target: T1, ASCL1 (human (endogenous in iPSC-derived neural cultures and fetal cortex)); assay: proximity ligation
[2] = target: T1, ASCL1 (human (endogenous in iPSC-derived neural cultures and fetal cortex)); assay: proximity ligation; remark: listed apart in the source
[3] = target: T1, ASCL1 (human (endogenous in iPSC-derived neural cultures and fetal cortex)); assay: co-IP
[4] = target: SMARCC1 (human (endogenous in iPSC-derived neural cultures)) (UniProt Q92922); assay: co-IP
[5] = target: ARID1A (human (endogenous in iPSC-derived neural cultures)) (UniProt O14497); assay: co-IP

| binding [1] | binding [2] | binding [3] | binding [4] | binding [5] | Molecule |
| --- | --- | --- | --- | --- | --- |
| binds | binds | – | – | – | SMARCB1 (from UniProt Q12824 1-385) |
| – | – | binds | – | – | SMARCC1 (from UniProt Q92922 1-1105) |
| binds | binds | – | – | – | SMARCC2 (from UniProt Q8TAQ2 1-1214) |
| – | – | – | binds | binds | ASCL1 (protein, UniProt P50553 1-236) MESSAKMESGGAGQQPQPQPQQPFLPPAACFFATAAAAAAAAAAAAAQSAQQQQQQQQQQQQAPQLRPAADGQPSGGGHKSAPKQVKRQRSSSPELMRCKRRLNFSGFGYSLPQQQPAAVARRNERERNRVKLVNLGFATLREHVPNGAANKKMSKVETLRSAVEYIRALQQLLDEHDAVSAAFQAGVLSPTISPNYSNDLNSMAGSPVSSYSSDEGSYDPLSPEEQELLDFTNWF |
